The target in data set [1] is CREB1 (UniProt P16220). The data set can be described thus: DNA pull-down, SILAC MS. The conditions noted are these: PBB: 150 mM NaCl, 50 mM Tris/HCl pH 8.0, 10 mM MgCl2, 0.5% NP-40, protease inhibitor; 200 ug SILAC nuclear extract, 2 h at 4 C (automated: 8 C); elution 16 mM biotin; protein in an extract; label: desthiobiotin-dATP fill-in.
Data set [2] concerns the target T1, TFAP4 (UniProt Q01664).
T1 sequence (looked up, limits assumed): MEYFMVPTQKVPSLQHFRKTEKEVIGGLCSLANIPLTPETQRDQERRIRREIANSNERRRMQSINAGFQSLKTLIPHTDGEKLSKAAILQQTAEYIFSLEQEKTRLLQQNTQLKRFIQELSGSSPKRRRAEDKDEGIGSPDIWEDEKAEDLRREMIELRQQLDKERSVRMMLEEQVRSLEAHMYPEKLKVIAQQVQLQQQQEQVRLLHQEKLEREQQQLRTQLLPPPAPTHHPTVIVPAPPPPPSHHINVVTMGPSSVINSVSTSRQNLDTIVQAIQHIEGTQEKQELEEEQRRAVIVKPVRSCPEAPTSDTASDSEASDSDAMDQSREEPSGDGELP
Put plainly: DNA pull-down, SILAC MS. The conditions noted are these: PBB: 150 mM NaCl, 50 mM Tris/HCl pH 8.0, 10 mM MgCl2, 0.5% NP-40, protease inhibitor; 200 ug SILAC nuclear extract, 2 h at 4 C (automated: 8 C); elution 16 mM biotin; protein in an extract; label: desthiobiotin-dATP fill-in.

Protein sequences, listed by entry. Tags and fused reporters are not part of them. Lines headed by an entry give the natural chain unless they say otherwise; changes in a name come on top.
UniProt P16220: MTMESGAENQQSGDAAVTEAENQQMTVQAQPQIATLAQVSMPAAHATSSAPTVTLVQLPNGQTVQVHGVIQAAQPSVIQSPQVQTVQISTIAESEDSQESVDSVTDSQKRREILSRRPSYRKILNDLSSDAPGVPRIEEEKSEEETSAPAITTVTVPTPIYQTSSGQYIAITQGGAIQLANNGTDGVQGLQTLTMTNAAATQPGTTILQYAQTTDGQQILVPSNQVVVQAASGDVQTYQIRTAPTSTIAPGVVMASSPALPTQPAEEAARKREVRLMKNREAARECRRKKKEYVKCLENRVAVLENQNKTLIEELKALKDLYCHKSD
UniProt Q9UJU2, whole entry: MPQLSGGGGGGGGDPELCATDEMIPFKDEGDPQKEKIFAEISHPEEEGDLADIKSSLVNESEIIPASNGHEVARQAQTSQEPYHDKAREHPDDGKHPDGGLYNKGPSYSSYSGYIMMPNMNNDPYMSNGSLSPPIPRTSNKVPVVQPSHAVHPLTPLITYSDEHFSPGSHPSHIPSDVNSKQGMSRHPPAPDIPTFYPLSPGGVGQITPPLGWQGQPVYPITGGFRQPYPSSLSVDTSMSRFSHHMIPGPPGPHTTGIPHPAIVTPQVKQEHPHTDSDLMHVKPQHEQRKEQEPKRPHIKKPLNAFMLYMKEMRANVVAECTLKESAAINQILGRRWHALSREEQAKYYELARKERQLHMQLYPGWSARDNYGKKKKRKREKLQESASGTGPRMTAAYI
UniProt P08047, whole entry: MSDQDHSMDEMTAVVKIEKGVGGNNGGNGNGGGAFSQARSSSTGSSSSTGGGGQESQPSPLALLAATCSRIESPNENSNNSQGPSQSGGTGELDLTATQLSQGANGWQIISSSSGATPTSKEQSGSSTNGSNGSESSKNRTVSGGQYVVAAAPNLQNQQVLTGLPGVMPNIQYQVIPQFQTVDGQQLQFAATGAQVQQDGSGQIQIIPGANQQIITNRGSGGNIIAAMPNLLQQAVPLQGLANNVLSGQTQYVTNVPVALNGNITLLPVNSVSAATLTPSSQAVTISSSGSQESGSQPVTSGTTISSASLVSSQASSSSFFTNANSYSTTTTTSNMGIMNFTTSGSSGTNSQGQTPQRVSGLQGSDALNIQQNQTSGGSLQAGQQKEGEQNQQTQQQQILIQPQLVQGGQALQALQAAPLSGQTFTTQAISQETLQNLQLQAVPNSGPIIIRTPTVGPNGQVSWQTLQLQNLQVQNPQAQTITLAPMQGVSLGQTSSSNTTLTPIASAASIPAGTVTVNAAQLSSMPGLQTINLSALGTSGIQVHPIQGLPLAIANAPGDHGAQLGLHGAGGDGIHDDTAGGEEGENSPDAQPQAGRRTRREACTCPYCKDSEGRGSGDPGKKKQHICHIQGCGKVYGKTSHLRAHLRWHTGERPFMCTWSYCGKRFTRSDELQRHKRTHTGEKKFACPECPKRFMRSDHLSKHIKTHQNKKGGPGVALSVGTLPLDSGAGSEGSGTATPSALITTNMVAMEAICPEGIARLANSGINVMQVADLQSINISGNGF
UniProt Q02447: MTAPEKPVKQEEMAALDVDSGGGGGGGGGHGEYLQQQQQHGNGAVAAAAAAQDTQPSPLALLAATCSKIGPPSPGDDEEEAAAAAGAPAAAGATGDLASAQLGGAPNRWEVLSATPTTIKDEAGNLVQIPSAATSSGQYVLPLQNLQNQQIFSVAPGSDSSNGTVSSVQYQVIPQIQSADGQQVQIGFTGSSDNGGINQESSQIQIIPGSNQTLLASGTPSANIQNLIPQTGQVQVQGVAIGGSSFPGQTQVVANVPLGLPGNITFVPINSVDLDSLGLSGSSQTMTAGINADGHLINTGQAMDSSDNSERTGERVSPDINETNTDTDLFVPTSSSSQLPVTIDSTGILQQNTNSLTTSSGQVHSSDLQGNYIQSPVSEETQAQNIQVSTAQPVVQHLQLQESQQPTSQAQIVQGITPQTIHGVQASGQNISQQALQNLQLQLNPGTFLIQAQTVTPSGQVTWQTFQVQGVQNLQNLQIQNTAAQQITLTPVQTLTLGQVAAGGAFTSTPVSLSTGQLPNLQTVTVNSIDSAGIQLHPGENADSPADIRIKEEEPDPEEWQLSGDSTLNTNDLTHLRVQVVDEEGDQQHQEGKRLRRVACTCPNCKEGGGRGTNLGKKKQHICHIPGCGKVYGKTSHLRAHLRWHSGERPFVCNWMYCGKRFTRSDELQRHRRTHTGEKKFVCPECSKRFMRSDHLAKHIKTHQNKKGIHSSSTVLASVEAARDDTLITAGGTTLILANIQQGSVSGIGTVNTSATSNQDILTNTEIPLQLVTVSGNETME
UniProt Q01196, whole entry: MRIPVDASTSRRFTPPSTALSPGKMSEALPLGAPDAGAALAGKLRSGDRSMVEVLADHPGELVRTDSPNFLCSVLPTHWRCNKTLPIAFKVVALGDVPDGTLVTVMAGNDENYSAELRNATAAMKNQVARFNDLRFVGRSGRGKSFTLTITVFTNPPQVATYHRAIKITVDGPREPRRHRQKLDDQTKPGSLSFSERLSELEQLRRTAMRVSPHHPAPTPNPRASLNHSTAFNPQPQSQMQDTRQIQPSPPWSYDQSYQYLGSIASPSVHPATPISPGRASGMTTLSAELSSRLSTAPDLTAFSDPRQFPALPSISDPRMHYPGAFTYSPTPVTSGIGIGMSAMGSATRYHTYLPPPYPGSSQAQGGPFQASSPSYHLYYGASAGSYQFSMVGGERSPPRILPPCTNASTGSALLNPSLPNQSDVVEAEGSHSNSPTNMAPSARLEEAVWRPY

Data set [3] concerns the target LEF1 (UniProt Q9UJU2). The data set can be described thus: DNA pull-down, SILAC MS. The conditions noted are these: PBB: 150 mM NaCl, 50 mM Tris/HCl pH 8.0, 10 mM MgCl2, 0.5% NP-40, protease inhibitor; 200 ug SILAC nuclear extract, 2 h at 4 C (automated: 8 C); elution 16 mM biotin; protein in an extract; label: desthiobiotin-dATP fill-in.
Data set [4] concerns TFAP2 (AP-2). Put plainly: DNA pull-down, SILAC MS and immunoblot. Particulars: PBB: 150 mM NaCl, 50 mM Tris/HCl pH 8.0, 10 mM MgCl2, 0.5% NP-40, protease inhibitor; 200 ug SILAC nuclear extract, 2 h at 4 C (automated: 8 C); elution 16 mM biotin; protein in an extract; label: desthiobiotin-dATP fill-in. Background: Immunoblotting shows a protein as a band on a membrane.
The target of data set [5] is SP1 (UniProt P08047). The data set can be described thus: DNA pull-down, SILAC MS. Particulars: PBB: 150 mM NaCl, 50 mM Tris/HCl pH 8.0, 10 mM MgCl2, 0.5% NP-40, protease inhibitor; 200 ug SILAC nuclear extract, 2 h at 4 C (automated: 8 C); elution 16 mM biotin; protein in an extract; label: desthiobiotin-dATP fill-in.
Data set [6] addresses SP3 (UniProt Q02447). The data set can be described thus: DNA pull-down, SILAC MS. The conditions noted are these: PBB: 150 mM NaCl, 50 mM Tris/HCl pH 8.0, 10 mM MgCl2, 0.5% NP-40, protease inhibitor; 200 ug SILAC nuclear extract, 2 h at 4 C (automated: 8 C); elution 16 mM biotin; protein in an extract; label: desthiobiotin-dATP fill-in.
In data set [7] the test system is RUNX1 + CBFB. The data set can be described thus: DNA pull-down, SILAC MS. Particulars: PBB: 150 mM NaCl, 50 mM Tris/HCl pH 8.0, 10 mM MgCl2, 0.5% NP-40, protease inhibitor; 200 ug SILAC nuclear extract, 2 h at 4 C (automated: 8 C); elution 16 mM biotin; protein in an extract; label: desthiobiotin-dATP fill-in.
In data set [8] the target is RUNX1 (UniProt Q01196). The data set can be described thus: DNA pull-down, immunoblot. Particulars: PBB: 150 mM NaCl, 50 mM Tris/HCl pH 8.0, 10 mM MgCl2, 0.5% NP-40, protease inhibitor, 200 ug SILAC nuclear extract, 2 h at 4 C (automated: 8 C), elution 16 mM biotin, protein in an extract, label: desthiobiotin-dATP fill-in.

For at least one entry, the source does not settle the construct or the ends of the probe. Where cells or extracts were used, other partners may take part. For part of these data: No signal at the amounts used counts as a negative. For part of these data: The comparison behind a weaker result is the experiment's own reference, which may not be listed here. For part of these data: At least one verdict rests on a figure or table, not on a statement of the authors. For part of these data: Tags and fusion partners may be left off the protein sequences shown. For part of these data: The direction of at least one scale is not stated here.

Take “TTGAAAGAGGGCTCATAATTCCATGTCAGGGAAGAGCCGCTGGC / AAGCCAGCGGCTCTTCCCTGACATGGAATTATGAGCCCTCTTTC [rs12722522*T]”: the binding result in data set [1] and in data set [2] was “binds more weakly” in each case. For “TTGAACCCAGAAGCGACATTAGCAAGGGGTTCGTTTCACGGAATC / AAGATTCCGTGAAACGAACCCCTTGCTAATGTCGCTTCTGGGTTC [rs41295061*C]”, the binding result in data set [3] was “binds more weakly”. Turning to “AACAAAACTGCAGGATCGAACTGACCGCACGGGGCACGTGTC / TTGACACGTGCCCCGTGCGGTCAGTTCGATCCTGCAGTTTTG [AP2_A]”, in data set [4], the binding result is given as “no binding”. Consider “AAGGCTTGGGCTCCTCCCCCCAGCCAAC / TTGTTGGCTGGGGGGAGGAGCCCAAGCC [rs509813*C]”, for which the binding result in data set [5] and in data set [6] was “binds” each time.

In the case of “TTGAAAAGAATAGAACCCACCCACAGAAACTATCAGAGATCAAATG / AACATTTGATCTCTGATAGTTTCTGTGGGTGGGTTCTATTCTTTTC [rs12722508*A]”, the binding result in data set [7] and in data set [8] was “binds” throughout.

As to “TTGAAAAGAATAGAACCCACCCACTGAAACTATCAGAGATCAAATG / AACATTTGATCTCTGATAGTTTCAGTGGGTGGGTTCTATTCTTTTC [rs12722508*T]”, the binding result in data set [7] is given as “binds more weakly”; in data set [8] (legend prints A- and G-allele, text: RUNX1 binds both alleles), “binds more weakly”.

For the sequence “TTGAACCCAGAAGCGACATTAGAAAGGGGTTCGTTTCACGGAATC / AAGATTCCGTGAAACGAACCCCTTTCTAATGTCGCTTCTGGGTTC [rs41295061*A]”, the binding signal (fold over C allele) in data set [3] amounted to 8. Take “TTGAAAGAGGGCTCATAATTCCACGTCAGGGAAGAGCCGCTGGC / AAGCCAGCGGCTCTTCCCTGACGTGGAATTATGAGCCCTCTTTC [rs12722522*C]”: the binding result in data set [1] and in data set [2] was “binds” in each case. Regarding “AAGGCTTGGGCTCCTCCCGCCAGCCAAC / TTGTTGGCTGGCGGGAGGAGCCCAAGCC [rs509813*G]”, the binding result in data set [5] and in data set [6] was “binds more weakly” each time.

The values above are taken from PMC3459973.
